Measurements reported in PMC6969142.
These are yes or no findings as the source states them, for the method shown. In cells and extracts the contact can be indirect. A yes stands for co-enrichment or nearness to the bait. Other partners may have been found. Where a sequence is shown, tags or fusion partners need not be part of it.

The chains behind the UniProt entries cited, without tags or fusion partners.
UniProt Q9VHP0: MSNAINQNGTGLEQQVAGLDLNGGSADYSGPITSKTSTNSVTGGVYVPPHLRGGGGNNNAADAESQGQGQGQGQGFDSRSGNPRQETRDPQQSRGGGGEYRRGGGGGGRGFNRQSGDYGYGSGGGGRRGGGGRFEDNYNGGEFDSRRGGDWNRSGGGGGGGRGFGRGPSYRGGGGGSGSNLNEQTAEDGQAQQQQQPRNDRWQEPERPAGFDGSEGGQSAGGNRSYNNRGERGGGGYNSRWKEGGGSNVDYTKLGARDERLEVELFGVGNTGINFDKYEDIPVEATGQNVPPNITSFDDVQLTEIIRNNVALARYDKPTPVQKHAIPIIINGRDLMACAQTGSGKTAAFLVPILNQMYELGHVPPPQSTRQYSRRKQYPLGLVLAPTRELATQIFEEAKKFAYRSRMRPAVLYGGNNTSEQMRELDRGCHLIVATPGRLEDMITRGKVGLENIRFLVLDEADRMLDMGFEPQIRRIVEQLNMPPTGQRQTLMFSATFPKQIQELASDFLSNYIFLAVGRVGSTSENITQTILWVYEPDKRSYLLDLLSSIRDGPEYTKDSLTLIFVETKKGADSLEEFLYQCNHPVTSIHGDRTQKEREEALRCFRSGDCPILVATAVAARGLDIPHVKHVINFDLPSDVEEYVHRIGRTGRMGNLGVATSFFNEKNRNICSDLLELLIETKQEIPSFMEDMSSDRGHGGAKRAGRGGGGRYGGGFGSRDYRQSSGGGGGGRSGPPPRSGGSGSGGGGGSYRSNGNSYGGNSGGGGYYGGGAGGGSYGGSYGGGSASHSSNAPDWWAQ
UniProt P17210: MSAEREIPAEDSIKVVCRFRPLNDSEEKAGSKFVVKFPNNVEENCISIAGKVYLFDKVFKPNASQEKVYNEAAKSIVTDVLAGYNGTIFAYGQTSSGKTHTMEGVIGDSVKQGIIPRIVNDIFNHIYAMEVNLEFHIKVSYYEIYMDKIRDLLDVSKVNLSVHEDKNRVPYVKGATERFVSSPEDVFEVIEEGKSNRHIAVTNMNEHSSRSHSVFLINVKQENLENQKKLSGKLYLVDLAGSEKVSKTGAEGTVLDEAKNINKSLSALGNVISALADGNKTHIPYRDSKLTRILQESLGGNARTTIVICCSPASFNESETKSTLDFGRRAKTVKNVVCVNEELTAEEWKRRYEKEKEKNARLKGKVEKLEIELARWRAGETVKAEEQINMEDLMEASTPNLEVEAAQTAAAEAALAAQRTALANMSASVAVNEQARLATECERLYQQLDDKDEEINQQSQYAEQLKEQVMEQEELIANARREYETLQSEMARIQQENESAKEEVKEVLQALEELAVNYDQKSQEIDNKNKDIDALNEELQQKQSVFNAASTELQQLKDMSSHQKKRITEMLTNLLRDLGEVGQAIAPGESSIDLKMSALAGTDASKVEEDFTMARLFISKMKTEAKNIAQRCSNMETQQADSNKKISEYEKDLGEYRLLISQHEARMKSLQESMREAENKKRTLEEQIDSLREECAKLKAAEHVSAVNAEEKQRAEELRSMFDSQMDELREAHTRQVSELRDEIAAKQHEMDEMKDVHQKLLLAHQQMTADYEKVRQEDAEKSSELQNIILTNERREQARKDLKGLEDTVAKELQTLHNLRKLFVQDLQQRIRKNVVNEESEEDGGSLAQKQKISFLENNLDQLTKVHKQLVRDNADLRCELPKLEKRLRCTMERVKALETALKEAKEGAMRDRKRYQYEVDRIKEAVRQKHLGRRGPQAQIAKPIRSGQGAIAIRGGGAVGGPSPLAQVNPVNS
UniProt P25823: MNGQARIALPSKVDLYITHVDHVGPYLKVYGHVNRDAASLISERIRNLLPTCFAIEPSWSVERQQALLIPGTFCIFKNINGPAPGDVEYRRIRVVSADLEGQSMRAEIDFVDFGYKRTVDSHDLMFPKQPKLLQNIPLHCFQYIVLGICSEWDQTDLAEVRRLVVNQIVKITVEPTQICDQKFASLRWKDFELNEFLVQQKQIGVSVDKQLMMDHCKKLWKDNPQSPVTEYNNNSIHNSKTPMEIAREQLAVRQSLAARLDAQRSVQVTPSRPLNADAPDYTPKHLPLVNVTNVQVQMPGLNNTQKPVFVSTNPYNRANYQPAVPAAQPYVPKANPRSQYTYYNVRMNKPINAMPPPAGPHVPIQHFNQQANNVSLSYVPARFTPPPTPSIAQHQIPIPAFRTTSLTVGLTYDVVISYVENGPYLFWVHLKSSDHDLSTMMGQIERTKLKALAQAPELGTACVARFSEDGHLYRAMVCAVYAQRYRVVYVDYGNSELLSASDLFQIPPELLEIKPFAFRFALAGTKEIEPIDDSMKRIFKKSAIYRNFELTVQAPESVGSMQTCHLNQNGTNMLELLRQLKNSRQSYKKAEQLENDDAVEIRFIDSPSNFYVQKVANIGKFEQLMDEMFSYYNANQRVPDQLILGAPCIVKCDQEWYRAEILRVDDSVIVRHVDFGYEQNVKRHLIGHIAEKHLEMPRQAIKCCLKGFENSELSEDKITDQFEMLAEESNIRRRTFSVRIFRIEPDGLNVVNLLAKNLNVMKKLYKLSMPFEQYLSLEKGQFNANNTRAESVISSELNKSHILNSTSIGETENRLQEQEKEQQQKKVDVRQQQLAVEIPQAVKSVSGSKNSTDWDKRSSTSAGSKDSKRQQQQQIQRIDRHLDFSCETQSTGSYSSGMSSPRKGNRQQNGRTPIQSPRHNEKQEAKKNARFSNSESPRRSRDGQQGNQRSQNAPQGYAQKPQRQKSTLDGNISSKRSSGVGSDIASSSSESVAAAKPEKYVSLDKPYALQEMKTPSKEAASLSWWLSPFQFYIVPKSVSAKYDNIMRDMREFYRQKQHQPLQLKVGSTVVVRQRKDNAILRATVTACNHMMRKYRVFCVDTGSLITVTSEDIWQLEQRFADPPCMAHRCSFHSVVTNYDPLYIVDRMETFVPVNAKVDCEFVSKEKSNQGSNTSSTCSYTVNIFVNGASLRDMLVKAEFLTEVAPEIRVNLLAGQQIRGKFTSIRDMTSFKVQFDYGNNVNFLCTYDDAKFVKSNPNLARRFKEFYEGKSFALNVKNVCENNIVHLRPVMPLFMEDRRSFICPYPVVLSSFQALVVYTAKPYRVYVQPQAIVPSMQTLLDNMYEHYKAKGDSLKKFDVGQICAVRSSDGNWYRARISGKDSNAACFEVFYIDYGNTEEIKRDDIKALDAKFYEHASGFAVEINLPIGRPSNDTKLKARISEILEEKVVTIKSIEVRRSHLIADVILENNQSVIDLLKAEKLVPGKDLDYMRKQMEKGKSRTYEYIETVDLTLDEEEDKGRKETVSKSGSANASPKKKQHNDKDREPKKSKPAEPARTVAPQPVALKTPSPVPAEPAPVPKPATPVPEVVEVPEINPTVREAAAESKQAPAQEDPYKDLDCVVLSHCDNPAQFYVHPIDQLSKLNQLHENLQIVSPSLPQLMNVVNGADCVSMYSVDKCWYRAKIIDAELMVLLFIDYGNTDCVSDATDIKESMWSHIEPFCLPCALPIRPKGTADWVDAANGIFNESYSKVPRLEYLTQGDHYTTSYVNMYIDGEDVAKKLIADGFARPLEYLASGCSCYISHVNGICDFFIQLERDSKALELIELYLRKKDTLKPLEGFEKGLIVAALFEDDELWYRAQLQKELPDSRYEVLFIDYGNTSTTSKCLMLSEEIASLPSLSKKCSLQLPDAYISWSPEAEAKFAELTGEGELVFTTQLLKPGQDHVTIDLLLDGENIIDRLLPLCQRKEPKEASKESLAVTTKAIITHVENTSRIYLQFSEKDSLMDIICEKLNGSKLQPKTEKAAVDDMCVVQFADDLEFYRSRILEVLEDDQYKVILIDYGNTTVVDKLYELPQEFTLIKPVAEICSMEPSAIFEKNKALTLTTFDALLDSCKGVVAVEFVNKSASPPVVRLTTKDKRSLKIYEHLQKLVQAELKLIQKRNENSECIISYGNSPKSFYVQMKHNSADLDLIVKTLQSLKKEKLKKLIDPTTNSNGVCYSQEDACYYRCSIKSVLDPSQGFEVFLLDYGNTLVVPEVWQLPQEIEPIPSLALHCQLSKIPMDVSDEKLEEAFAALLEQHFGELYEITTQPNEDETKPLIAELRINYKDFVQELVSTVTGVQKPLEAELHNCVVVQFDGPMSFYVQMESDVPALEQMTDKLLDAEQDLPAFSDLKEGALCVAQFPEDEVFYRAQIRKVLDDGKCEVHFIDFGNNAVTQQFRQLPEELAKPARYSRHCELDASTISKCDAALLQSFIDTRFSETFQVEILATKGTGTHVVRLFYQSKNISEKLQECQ
UniProt Q9VWI1: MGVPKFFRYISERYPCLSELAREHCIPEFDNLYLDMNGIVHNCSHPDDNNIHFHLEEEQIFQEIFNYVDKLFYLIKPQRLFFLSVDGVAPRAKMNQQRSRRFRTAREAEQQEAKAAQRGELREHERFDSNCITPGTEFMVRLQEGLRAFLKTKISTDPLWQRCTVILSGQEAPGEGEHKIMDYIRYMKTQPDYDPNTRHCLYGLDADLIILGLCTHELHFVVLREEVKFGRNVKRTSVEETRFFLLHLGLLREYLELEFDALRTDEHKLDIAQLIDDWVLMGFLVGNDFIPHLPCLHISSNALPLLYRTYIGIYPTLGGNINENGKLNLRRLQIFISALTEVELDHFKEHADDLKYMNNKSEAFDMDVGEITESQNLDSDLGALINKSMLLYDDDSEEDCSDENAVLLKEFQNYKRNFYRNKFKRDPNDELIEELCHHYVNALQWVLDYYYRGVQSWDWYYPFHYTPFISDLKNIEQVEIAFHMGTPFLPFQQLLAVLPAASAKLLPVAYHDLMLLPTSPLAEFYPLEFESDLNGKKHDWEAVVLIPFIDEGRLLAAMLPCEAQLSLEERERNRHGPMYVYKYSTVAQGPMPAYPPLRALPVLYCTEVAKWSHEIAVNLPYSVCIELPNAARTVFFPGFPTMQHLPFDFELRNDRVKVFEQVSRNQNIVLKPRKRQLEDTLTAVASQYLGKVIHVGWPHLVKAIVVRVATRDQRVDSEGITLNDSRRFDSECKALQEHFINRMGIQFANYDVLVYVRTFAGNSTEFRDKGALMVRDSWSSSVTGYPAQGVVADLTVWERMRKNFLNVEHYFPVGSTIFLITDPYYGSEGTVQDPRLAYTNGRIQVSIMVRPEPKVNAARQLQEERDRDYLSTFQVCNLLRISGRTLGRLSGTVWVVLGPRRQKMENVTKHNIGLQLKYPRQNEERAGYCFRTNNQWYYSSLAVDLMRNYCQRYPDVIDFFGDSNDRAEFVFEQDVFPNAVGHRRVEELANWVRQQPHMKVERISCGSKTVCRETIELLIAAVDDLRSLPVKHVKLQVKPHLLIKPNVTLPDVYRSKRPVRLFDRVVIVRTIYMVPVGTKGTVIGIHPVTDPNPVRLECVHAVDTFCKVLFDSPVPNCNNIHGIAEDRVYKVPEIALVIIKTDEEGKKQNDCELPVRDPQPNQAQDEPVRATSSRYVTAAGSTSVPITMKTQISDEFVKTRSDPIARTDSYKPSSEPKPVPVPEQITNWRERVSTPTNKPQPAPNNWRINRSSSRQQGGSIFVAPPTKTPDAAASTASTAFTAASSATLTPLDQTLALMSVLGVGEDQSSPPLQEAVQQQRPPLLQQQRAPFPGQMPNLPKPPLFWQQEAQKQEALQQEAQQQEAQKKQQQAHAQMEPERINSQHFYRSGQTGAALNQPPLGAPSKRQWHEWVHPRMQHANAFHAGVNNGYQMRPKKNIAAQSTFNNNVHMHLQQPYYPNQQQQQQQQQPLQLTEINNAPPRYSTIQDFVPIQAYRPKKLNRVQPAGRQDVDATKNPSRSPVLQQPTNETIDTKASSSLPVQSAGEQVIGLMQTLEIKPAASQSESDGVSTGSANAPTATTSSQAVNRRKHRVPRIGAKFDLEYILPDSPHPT
UniProt P15007: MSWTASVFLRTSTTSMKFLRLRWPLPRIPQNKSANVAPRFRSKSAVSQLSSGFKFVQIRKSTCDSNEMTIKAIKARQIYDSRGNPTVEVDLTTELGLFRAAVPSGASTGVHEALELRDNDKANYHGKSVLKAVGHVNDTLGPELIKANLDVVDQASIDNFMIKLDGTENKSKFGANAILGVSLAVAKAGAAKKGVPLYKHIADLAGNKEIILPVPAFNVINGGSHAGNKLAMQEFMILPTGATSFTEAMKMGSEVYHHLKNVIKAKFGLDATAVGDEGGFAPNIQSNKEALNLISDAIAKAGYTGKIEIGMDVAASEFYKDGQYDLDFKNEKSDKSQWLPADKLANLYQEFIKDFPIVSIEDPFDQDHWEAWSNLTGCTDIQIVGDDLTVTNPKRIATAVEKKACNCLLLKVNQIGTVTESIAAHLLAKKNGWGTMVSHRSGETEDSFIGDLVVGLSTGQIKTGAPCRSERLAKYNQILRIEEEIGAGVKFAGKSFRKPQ

T1: Me31B-GFP fusion protein (Drosophila melanogaster) (UniProt P23128)
T1 sequence: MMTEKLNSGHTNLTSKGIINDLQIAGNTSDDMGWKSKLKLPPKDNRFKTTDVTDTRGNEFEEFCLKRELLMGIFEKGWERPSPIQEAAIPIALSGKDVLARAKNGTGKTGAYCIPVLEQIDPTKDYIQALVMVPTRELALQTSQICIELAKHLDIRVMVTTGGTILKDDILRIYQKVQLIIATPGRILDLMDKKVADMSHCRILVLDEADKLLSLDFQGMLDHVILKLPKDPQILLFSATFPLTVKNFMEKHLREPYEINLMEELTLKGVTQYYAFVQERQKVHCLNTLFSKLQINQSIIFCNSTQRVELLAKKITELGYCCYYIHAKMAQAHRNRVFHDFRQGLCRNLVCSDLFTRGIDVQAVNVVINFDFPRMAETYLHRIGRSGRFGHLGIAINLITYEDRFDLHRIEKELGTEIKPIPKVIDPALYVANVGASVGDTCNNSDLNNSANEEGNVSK

B1: Cup (Cup) (protein, UniProt Q9VMA3 1-1117)
chain: MQMAEAEQENGAGALKIATNAGATDRPAHQQLPLPVEDQQDEVLTPAEKGKFEYPPPPPPPTPVQAPLATKATALNASQEHDDDEANSEKWEDPCAPPPPPPLPTSAFLATGLGYLKLPAFKLKDALEKAITKLEANKRTLKASPESSRSIKNKNVVALEMLPRRSNPETIGDGSMLASTSTAVMLQTKKPAVIVEMERRCKIINLLAKQNQILESISGEAIPMHGPSKHLHEDEGLTLQVLSARASTPYTQPSSMLSCTAVSCDLEHDSPRKQVASKEAVPEQQSSQVQQKRPPSTGIHKPGSLRAPKAVRPTTAPVVSSKPVKSYTRSRLMDIRNGMFNALMHRSKESFVMPRIATCDDIELEGRLRRMNIWRTSDGTRFRTRSTTANLNMNNNNNNECMPAFFKNKNKPNLISDESIIQSQPPQPQTEFQDPAIVNQRRIGSGRLNHSKWGYNDEDYHSYHNGKSQHMEEVNSKNSKNMTVLQFFDNGEISSQPQRRPNTPVMGMSINRSENDTLHSNESSEDLSRANENYVKRVMSGFLVVSKPKSRDVEDRHHRRYRNQNEEPEWFSCGPTSRLDTIELCGFDEDEEKMLKEGNKNHGLGETERETSKQKMDHKYKWTHAEPMGRSKYMPKHDTNNNHNVENMNNVMATEHQQQKEEKRPGSGRSFQFDKFNQSQQNYESSSYVNHQQPPQTQPQQMQQQSNTNTNNSKFMSFFANEGNSSSSSLNEFFKQAINQGHGNNPEQPKSLGHIGQMPSVDQLEAKWRRNSLNNVGETANKQTDNFQKLIGSLSSAKPQSQAVGYDAISNFIMQQQQYQQQQQKQHLIIQQQQQHTAFLASLQLKAILGRADTQLLLLRLTKGEISKHGLLVQLANPRLTDMDREAITAVLQFTNTQQQQQQHKQQLDMLSSTVIASQLQNLHNLAIVQQTLAARQQPQHNPQTQAPHQLSQEDLQAHANVIMRNAVMKRKIEEQTSKLINGGAKHQAQQQYLNRGQQRQARPDANSNALLHALISGGGNNHASGYPMNGQPQKHHSNLRFGDNQNFQSFESNQPHFATQYKQQYQQSQQQHPHQQPQQLNSLHQNNAGAVNSFNKAQMQAQSAISMLPNSGDEFH
B2: Phosphoglycerate kinase (PgK) (enzyme, UniProt Q01604 1-415)
chain: MAFNKLSIENLDLAGKRVLMRVDFNVPIKEGKITSNQRIVAALDSIKLALSKKAKSVVLMSHLGRPDGNKNIKYTLAPVAAELKTLLGQDVIFLSDCVGSEVEAACKDPAPGSVILLENVRFYVEEEGKGLDASGGKVKADPAKVKEFRASLAKLGDVYVNDAFGTAHRAHSSMMGDGFEQRAAGLLLNKELKYFSQALDKPPNPFLAILGGAKVADKIQLIENLLDKVNEMIIGGGMAFTFLKVLNNMKIGGSLFDEEGSKIVEKLVEKAKKNNVQLHLPVDFVCGDKFAENAAVSEATVEAGIPDGHMGLDVGPKTRELFAAPIARAKLIVWNGPPGVFEFPNFANGTKSIMDGVVAATKNGTVSIIGGGDTASCCAKWNTEALVSHVSTGGGASLELLEGKTLPGVAALTSA
B3: 6-phosphofructokinase (PfK) (enzyme, UniProt P52034 1-788)
chain: MNSEINQRFLARGSQKDKGLAVFTSGGDSQGMNAAVRACVRMAIYLGCKVYFIREGYQGMVDGGDCIQEANWASVSSIIHRGGTIIGSARCQDFRERQGRLKAANNLIQRGITNLVVIGGDGSLTGANLFRQEWSSLLDELVKNKTITTEQQEKFNVLHIVGLVGSIDNDFCGTDMTIGTDTALHRIIEAIDAISSTAYSHQRTFIMEVMGRHCGYLALVGGLACEADFIFIPEMPPKVDWPDRLCSQLAQERSAGQRLNIVIVAEGAMDREGHPITAEDVKKVIDERLKHDARITVLGHVQRGGNPSAFDRILACRMGAEATLALMEATKDSVPVVISLDGNQAVRVPLMECVERTQAVAKAMAEKRWADAVKLRGRSFERNLETYKMLTRLKPPKENFDADGKGIEGYRLAVMHIGAPACGMNAAVRSFVRNAIYRGDVVYGINDGVEGLIAGNVRELGWSDVSGWVGQGGAYLGTKRTLPEGKFKEIAARLKEFKIQGLLIIGGFESYHAAGQIADQRDNYPQFCIPIVVIPSTISNNVPGTEFSLGCDTGLNEITEICDRIRQSAQGTKRRVFVIETMGGYCGYLATLAGLAGGADAAYIYEEKFSIKDLQQDVYHMASKMAEGVSRGLILRNEKASENYSTDFIYRLYSEEGKGLFTCRMNILGHMQQGGSPTPFDRNMGTKMAAKCVDWLAAQIKANIDANGVVNCKSPDTATLLGIVSRQYRFSPLVDLIAETNFDQRIPKKQWWLRLRPLLRILAKHDSAYEEEGMYITVEEECDTDAVA
B4: Bicaudal-C (BicC) (protein, UniProt Q24009 1-905)
chain: MLSCASFNKLMYPSAADVAKPPMVGLEVEAGSIGSLSSLHALPSTTSVGSGAPSETQSEISSVDSDWSDIRAIAMKLGVQNPDDLHTERFKVDRQKLEQLIKAESSIEGMNGAEYFFHDIMNTTDTYVSWPCRLKIGAKSKKDPHVRIVGKVDQVQRAKERILSSLDSRGTRVIMKMDVSYTDHSYIIGRGGNNIKRIMDDTHTHIHFPDSNRSNPTEKSNQVSLCGSLEGVERARALVRLSTPLLISFEMPVMGPNKPQPDHETPYIKMIETKFNVQVIFSTRPKLHTSLVLVKGSEKESAQVRDATQLLINFACESIASQILVNVQMEISPQHHEIVKGKNNVNLLSIMERTQTKIIFPDLSDMNVKPLKKSQVTISGRIDDVYLARQQLLGNLPVALIFDFPDNHNDASEIMSLNTKYGVYITLRQKQRQSTLAIVVKGVEKFIDKIYEARQEILRLATPFVKPEIPDYYFMPKDKDLNLAYRTQLTALLAGYVDSPKTPSLLPPSLAGQLTPYANNNHLLLNANGLATPTGVCAPTQKYMQLHNSFQQAQNRSMVAGGQSNNGNYLQVPGAVAPPLKPPTVSPRNSCSQNTSGYQSFSSSTTSLEQSYPPYAQLPGTVSSTSSSTAGSQNRAHYSPDSTYGSEGGGVGGGGGGGARLGRRLSDGVLLGLSNSNGGGGNSGGAHLLPGSAESYRSLHYDLGGNKHSGHRAFDFDMKRALGYKAMERTPVAGELRTPTTAWMGMGLSSTSPAPAPLENGENGAAGGGASSGWRLPPGLGSPYGLSATTGLLDATPVNRRMQLAKHKDIQTLLTSLGLEHYIKIFVLNEIDLEVFTTLTEENLMELGIAAFGARKKLLTAIHTLLANEAACSTMPSSSSSQNSSSPRFSGSAAPGAERRPSNQW
B5: eIF4E (eIF-4E) (protein, UniProt P48598 1-259)
chain: MQSDFHRMKNFANPKSMFKTSAPSTEQGRPEPPTSAAAPAEAKDVKPKEDPQETGEPAGNTATTTAPAGDDAVRTEHLYKHPLMNVWTLWYLENDRSKSWEDMQNEITSFDTVEDFWSLYNHIKPPSEIKLGSDYSLFKKNIRPMWEDAANKQGGRWVITLNKSSKTDLDNLWLDVLLCLIGEAFDHSDQICGAVINIRGKSNKISIWTADGNNEEAALEIGHKLRDALRLGRNNSLQYQLHKDTMVKQGSNVKSIYTL

Each molecule was assayed against T1, Me31B-GFP fusion protein (Drosophila melanogaster) (assay: affinity purification with mass spectrometry; 0–1 hour Me31B-GFP embryos crosslinked in vivo with 0.2% formaldehyde; lysate on anti-GFP magnetic beads, 5 stringent washes; complexes resolved on a 3–15% step gel and the band excised; four biological replicates; GFP flies as control).

Molecule	binding
Pyruvate kinase (PyK) (from UniProt O62619 1-533) (enzyme)	binds
Belle (Bel) (from UniProt Q9VHP0 1-798)	binds
Kinesin heavy chain (Khc) (from UniProt P17210 1-975)	binds
Dynein heavy chain (Dhc 64 C) (from UniProt P37276 1-4639)	binds
β-Tubulin (BetaTub56D) (from UniProt Q24560 1-447)	binds
eIF4A (eIF-4a) (from UniProt Q02748 1-403)	binds
Tudor (Tud) (from UniProt P25823 1-2515)	binds weakly
Pacman (Pcm) (from UniProt Q9VWI1 1-1612)	binds
Enolase (Eno) (from UniProt P15007 1-500) (enzyme)	binds
B1	binds
B2	binds
B3	binds
B4	binds
B5	binds
